Literature values in US20230190748A1, “COMPOSITIONS FOR TREATMENT OF AGED DISEASES” (GERO PTE. LTD., priority 2020, published 2023).
At least one compound was matched to its structure with a doubt left.

Chains of the proteins cited; added tags and fusions are not shown. Residues count along the entry.
UniProt Q15303, 26-1308, species assumed: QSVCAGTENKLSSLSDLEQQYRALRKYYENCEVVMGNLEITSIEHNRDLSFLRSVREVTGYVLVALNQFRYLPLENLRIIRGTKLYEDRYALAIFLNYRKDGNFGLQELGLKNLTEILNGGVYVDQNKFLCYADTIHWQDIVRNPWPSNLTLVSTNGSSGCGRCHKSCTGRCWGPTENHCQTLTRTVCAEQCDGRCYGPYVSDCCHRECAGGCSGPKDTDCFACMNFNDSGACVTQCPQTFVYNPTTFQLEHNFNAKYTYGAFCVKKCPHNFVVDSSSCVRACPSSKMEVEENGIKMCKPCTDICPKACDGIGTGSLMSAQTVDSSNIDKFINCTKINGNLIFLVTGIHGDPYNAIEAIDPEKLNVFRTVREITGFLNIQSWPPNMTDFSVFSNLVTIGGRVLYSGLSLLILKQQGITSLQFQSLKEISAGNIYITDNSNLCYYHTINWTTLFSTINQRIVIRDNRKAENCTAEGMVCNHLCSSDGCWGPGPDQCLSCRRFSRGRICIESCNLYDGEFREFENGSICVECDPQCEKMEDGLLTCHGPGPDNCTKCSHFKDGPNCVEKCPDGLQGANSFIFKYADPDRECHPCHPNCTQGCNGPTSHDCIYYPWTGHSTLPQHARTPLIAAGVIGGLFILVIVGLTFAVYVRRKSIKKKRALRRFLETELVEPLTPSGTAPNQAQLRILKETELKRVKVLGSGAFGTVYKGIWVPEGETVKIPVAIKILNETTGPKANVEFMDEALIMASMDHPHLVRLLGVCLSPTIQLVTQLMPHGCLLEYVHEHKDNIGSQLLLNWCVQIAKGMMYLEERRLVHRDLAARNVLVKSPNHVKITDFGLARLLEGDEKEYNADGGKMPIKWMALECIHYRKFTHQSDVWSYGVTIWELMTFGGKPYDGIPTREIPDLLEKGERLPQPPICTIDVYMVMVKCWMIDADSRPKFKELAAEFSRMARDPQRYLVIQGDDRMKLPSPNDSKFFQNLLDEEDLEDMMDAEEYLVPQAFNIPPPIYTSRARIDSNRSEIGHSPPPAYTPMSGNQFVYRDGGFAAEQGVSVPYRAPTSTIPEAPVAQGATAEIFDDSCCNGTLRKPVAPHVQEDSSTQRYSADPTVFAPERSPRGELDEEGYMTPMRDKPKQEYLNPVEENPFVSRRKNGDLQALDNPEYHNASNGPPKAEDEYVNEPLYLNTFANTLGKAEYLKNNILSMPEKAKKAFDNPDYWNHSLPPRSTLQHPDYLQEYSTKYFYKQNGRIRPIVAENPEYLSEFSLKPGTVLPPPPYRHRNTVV

Tests used:
ErbB4 = ErbB4 (Homo sapiens, UniProt Q15303); set-up: key to the marks not given beside the values; details: class symbols; legend not given; cited from earlier work
mutant EGFR = details: class symbols; legend not given; cited from earlier work

SMILES: CN(C)C/C=C/C(=O)Nc1cc2c(Nc3ccc(F)c(Cl)c3)ncnc2cc1O[C@H]1CCOC1 [Afatinib (BIBW2992), Afatinib]
- ErbB4 (ErbB4): ++++

SMILES: COc1cc(N2CCC(N3CCN(C)CC3)CC2)ccc1Nc1ncc(Cl)c(Nc2ccccc2P(C)(C)=O)n1 [Brigatinib (AP26113), Brigatinib]
- mutant EGFR (mutant EGFR): +
